Among all 330,000 compounds or so, about 7,700 (2.3%) were called active. The inconclusive results got no clear call from the source; some entries with a clear call stand among them for comparison. Calls follow the shape of the dose curve; as a rule, active = well fitted inhibition curve with a large enough effect; inconclusive = small, poorly fitted or top-dose-only effect, or effect the other way; inactive = flat fitted curve, though single readings scatter. Potencies of inconclusive entries are doubtful fits and often do not repeat.
Experiment: qHTS screen for small molecules that inhibit ELG1-dependent DNA repair in human embryonic kidney (HEK293T) cells expressing luciferase-tagged ELG1; also: nearly all actives have a fitted effect of over 55% in size
Conditions: HEK293T ELG1-luciferase reporter, luminescence, 16 h, DNA damage induced by 5-fluorouridine; activity change, negative = inhibition: at 46.1 µM (top of the series)
Method in brief: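 Quantitative HTS, concentration-response format. 2,000 cells/well co-treated with 5-fluorouridine and compound, 16 hr in 5% CO2 at 37 °C; ONE-Glo luminescence read after 30 min.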
With `COC(=O)c1cc(OC)c(OC)cc1NC(=O)Cc1ccccc1[N+](=O)[O-]` the Potency was inconclusive: 20.6 µM [inhibitor, partial curve]. For `CCCCN(CCCC)C(=S)N/N=C/c1c(C)[nH]n(-c2ccccc2)c1=O`, the Potency was inconclusive: 10.3 µM [inhibitor, partial curve, poor fit]. In the case of `COc1ccc(NS(=O)(=O)c2ccc(O)c(NC(=O)c3ccc(S(=O)(=O)N4CCCCCC4)cc3)c2)cc1`, the “activity change, negative = inhibition” value is reported as inactive: -17.1%. In the case of `Cc1cc(C)nc(N2CCN(C(=O)CCC(=O)Nc3nnc(C(C)C)s3)CC2)n1`, the Potency is reported as inconclusive: 2.59 µM [activator, single point]. In the case of `O=C(CSc1nccn1-c1ccc(Cl)cc1)NCc1ccc2c(c1)OCO2`, the Potency is reported as inconclusive: 29.1 µM [inhibitor, partial curve, poor fit]. For `CC(C)(C)/C(O)=C(/C#N)c1nc2ccccc2[nH]1`, the Potency was active: 23.1 µM. In the case of `O=C(NC1CC1)C(=O)c1c[nH]c2ccccc12`, the Potency is reported as inconclusive: 9.2 µM [activator, partial curve, poor fit]. For `CC(C)(C)c1nnc(NC(=O)NS(=O)(=O)c2ccccc2)s1`, the Potency was inconclusive: 3.55 µM [inhibitor, single point]. With `COc1ccc(-c2csc(NC(=O)CCn3cnc4ccccc4c3=O)n2)cc1OC` the Potency was active: 7.31 µM. In the case of `CCOc1ccc(C(=O)COC(=O)CNC(=O)C2CCCCC2)cc1`, the “activity change, negative = inhibition” value is reported as inactive: 12.1%. With `O=C1NC(=O)/C(=C/c2ccc(O)cc2)S1` the Potency was inconclusive: 20.6 µM [activator, partial curve]. With `COc1ccc(C(CNC(=O)C(CCSC)NC(=O)c2ccccc2Cl)N2CCCCC2)cc1` (stereo not given) the “activity change, negative = inhibition” value was inactive: -18.2%. For `O=C(OCC(=O)N1CCOCC1)c1ccccc1Cc1ccccc1`, the Potency was inconclusive: 9.2 µM [activator, partial curve]. For `COC(=O)[C@]1(C)CCC[C@@]2(C)C3CC[C@@]4(C)C[C@]3(CCC21)CC(=O)N4C` (stereo not given in full), the “activity change, negative = inhibition” value was inactive: -1.08%. With `COc1ccc(N(Cc2cc3cccc(C)c3[nH]c2=O)C(=O)C2CCCO2)cc1` (stereo not given) the Potency was inconclusive: 29.1 µM [inhibitor, single point]. In the case of `COc1ccc(NC(=O)CN2CCN(C3c4ccccc4-c4ccccc43)CC2)c(OC)c1`, the Potency is reported as active: 3.66 µM. For `CCN(C(=O)c1ccc(N2CC3CC(C2)c2cccc(=O)n2C3)c(NC(=O)c2ccncc2)c1)c1cccc(C)c1` (stereo not given), the Potency was inconclusive: 5.8 µM [inhibitor, full curve]. With `c1ccc(-c2nnc(-c3ccccn3)c(-c3ccccn3)n2)nc1` the “activity change, negative = inhibition” value was inactive: 2.4%. For `COc1cccc(N/C=C/C(=O)c2ccc(Cl)cc2)c1`, the Potency was inconclusive: 1.46 µM [activator, full curve]. With `c1ccc(-c2cc3cc4c(cc3cn2)OCO4)cc1` the Potency was inconclusive: 2.06 µM [activator, full curve]. For `CC(=O)Nc1ccc(NC(=O)CSCCc2ccccn2)cc1`, the Potency was inconclusive: 31.6 µM [activator, single point]. For `CCOc1cc(/C=N/NC(=O)c2cccs2)cc([N+](=O)[O-])c1O`, the Potency was inconclusive: 18.3 µM [activator, partial curve]. In the case of `O=C1N/C(=C/c2ccc(Br)s2)C(=O)N1c1ccccc1`, the Potency is reported as inconclusive: 29.1 µM [activator, single point]. With `CC(C)C[C@H](NC(=O)OC(C)(C)C)c1nnc(SCC(=O)Nc2ccc(Br)cc2)o1` the Potency was inconclusive: 29.1 µM [inhibitor, single point]. In the case of `O=C1C(C2=NC(C(=O)O)C3C(=O)N(c4ccc(Cl)cc4)C(=O)C23)=C(O)c2ccccc21` (stereo not given), the “activity change, negative = inhibition” value is reported as inactive: 9.07%. With `Cc1ccc(-c2noc(N=O)c2NO)cc1` the Potency was inconclusive: 9.2 µM [inhibitor, partial curve, poor fit]. For `O=S(=O)(c1ccccc1Cl)N1CCCC1c1nc(-c2ccc(Cl)cc2)no1` (stereo not given), the “activity change, negative = inhibition” value was inactive: -12.7%. With `Nc1cccc(Oc2ccc3c(c2)C(=O)N(CC2CCCO2)C3=O)c1` (stereo not given) the Potency was inconclusive: 2.59 µM [activator, partial curve]. With `CCN(CCCNC(=O)COc1cc(=O)n(CC)c2ccccc12)c1ccccc1` the “activity change, negative = inhibition” value was inactive: -0.0857%. In the case of `Cc1ccc2cc(CN(CC3CCCO3)C(=O)NC3CCCCC3)c(=O)[nH]c2c1C` (stereo not given), the Potency is reported as inconclusive: 5.8 µM [inhibitor, full curve]. With `CCOc1ccccc1-n1nnnc1SCC(=O)NC(=O)Cc1ccccc1` the “activity change, negative = inhibition” value was inactive: -9.63%. For `Cc1ccc(C(=O)Nc2cccc(C(F)(F)F)c2)cc1NC(=O)c1csc(-c2ccncc2)n1`, the Potency was inconclusive: 29.1 µM [inhibitor, single point]. In the case of `CCOCCc1nnc(NC(=O)C(C)Oc2ccccc2)s1` (stereo not given), the “activity change, negative = inhibition” value is reported as inactive: 1.27%. With `O=C(N/N=C\C=C\c1ccco1)c1cc(-c2ccc3ccccc3c2)n[nH]1` the Potency was inconclusive: 23.1 µM [activator, partial curve, poor fit]. For `O=C(Cn1cncn1)NCc1cccc(C(F)(F)F)c1`, the Potency was inconclusive: 20.6 µM [inhibitor, partial curve, poor fit]. In the case of `COC(=O)c1sc(SC)c2c1CC(C)(C)C/C2=N/O`, the Potency is reported as inconclusive: 14.6 µM [inhibitor, partial curve]. For `CCC1CCCCN1CC(=O)Nc1ccc2c(c1)OCCO2` (stereo not given), the Potency was inconclusive: 23.1 µM [activator, partial curve]. For `Cc1nnc(C)n1/N=C/c1cccs1`, the “activity change, negative = inhibition” value was inactive: 0%. With `COc1ccc(-c2cc(C(=O)N(C)Cc3cccc(OC)c3OC)c3ccccc3n2)cc1OC` the Potency was active: 13 µM. With `c1ccc(C2COC(c3cccs3)=N2)cc1` (stereo not given) the Potency was inconclusive: 16.4 µM [activator, single point]. With `COC(=O)c1sccc1NC(=S)Nc1cc(C)cc(C)c1` the Potency was inconclusive: 18.4 µM [activator, single point]. For `COc1cccc(NC(=O)c2ccccc2-c2nc(-c3ccc(Cl)cc3)no2)c1`, the Potency was inconclusive: 20.6 µM [inhibitor, single point]. In the case of `O=C(c1ccccc1NS(=O)(=O)c1ccc(F)cc1)N1CCOCC1`, the “activity change, negative = inhibition” value is reported as inactive: 12%. For `CC(C)(O)C(=O)N=Nc1c(O)[nH]c2ccccc12`, the Potency was inconclusive: 20.6 µM [activator, partial curve]. For `CCCn1c(-c2ccc(OC)cc2)nc2ccccc21`, the “activity change, negative = inhibition” value was inactive: 11.4%.

— PubChem BioAssay AID504467 (National Center for Advancing Translational Sciences (NCATS), 2011)
% is scaled to controls: 0 for no effect and ±100 for the full control effect; potency is read from the fitted curve at half-maximal effect.
